From doi:10.1101/2024.09.30.615192 come the findings set out here.

Sequences of proteins named here, by UniProt entry; tags and fusion partners are left off.
UniProt Q9GZM5: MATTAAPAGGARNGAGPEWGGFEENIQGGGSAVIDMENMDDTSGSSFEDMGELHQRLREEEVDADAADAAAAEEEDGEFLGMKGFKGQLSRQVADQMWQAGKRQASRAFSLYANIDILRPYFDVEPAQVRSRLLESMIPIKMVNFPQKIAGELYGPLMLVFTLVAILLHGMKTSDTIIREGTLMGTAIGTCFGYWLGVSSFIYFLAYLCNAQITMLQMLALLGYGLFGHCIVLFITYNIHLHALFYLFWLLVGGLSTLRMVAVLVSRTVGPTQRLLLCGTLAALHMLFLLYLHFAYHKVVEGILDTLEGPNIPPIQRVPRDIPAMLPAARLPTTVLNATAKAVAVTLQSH
UniProt Q9HC98: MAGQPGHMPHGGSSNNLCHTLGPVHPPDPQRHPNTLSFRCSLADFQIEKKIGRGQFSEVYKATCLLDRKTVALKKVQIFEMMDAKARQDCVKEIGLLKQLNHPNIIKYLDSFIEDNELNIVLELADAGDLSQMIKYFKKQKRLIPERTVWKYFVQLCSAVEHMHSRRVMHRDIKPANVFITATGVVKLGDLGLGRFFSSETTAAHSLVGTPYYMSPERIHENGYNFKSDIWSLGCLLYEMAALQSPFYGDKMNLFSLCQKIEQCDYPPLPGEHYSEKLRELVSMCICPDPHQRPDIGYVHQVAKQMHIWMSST

What all share (experiment): affinity purification with mass spectrometry
One test has as its target T1, SLC22A4 (human) (UniProt Q9H015).
T1 sequence: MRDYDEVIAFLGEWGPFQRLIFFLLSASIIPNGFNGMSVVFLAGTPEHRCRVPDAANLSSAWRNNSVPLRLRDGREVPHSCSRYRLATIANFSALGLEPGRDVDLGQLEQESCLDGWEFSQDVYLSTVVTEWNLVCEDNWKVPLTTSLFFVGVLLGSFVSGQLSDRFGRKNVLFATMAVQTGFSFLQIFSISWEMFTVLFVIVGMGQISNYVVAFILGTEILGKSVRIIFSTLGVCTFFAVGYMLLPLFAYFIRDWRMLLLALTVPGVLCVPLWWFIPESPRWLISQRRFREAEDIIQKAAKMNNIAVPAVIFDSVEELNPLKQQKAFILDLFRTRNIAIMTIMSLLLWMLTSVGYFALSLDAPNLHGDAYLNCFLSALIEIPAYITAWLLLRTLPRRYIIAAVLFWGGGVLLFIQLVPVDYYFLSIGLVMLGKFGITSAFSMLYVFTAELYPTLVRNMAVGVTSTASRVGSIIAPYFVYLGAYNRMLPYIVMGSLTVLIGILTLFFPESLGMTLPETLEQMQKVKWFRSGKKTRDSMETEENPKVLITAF

The target of test [1] is SLC1A2 (human) (UniProt P43004).
A further test concerns the target T2, SLC16A1 (human) (UniProt P53985).
T2 sequence: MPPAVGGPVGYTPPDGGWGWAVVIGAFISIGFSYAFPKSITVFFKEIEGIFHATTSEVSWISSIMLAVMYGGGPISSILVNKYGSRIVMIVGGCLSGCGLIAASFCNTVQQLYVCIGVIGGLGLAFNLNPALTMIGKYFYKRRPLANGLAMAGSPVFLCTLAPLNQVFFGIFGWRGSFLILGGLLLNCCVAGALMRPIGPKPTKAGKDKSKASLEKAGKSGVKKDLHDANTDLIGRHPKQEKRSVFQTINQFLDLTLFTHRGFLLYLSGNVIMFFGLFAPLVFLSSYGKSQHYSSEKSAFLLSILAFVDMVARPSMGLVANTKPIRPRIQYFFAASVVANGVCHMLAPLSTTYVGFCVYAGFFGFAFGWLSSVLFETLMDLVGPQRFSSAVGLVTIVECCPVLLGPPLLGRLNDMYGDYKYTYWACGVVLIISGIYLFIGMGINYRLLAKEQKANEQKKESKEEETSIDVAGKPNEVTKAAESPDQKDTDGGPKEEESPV

For the next test, the target named is T3, SLC6A8 (human) (UniProt P48029).
T3 sequence: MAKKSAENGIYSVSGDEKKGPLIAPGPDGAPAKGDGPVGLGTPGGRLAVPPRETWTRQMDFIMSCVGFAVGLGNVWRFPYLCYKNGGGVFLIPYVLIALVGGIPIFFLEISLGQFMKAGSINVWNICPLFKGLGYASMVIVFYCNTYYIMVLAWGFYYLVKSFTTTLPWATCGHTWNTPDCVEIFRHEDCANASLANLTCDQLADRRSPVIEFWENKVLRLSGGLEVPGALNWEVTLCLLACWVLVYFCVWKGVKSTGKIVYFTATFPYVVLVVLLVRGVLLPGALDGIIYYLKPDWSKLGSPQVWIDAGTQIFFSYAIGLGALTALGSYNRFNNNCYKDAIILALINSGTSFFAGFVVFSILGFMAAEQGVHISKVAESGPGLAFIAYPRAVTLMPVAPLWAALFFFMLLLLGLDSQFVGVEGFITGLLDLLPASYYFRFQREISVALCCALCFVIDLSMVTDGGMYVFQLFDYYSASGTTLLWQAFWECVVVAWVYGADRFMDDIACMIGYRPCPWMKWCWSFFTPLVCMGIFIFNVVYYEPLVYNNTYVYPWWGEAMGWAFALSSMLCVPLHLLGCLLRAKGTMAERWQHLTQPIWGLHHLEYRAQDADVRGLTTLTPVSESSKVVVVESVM

Test [2] deals with SLC1A2 (human) (UniProt P43004). The source holds these as a separate data set.

Where two headings read alike, the source gives them in different places. These are yes or no findings as the source states them, for the method shown. In cells and extracts the contact can be indirect. These calls come from enrichment with a bait or labelling near it, and not all partners need be listed.

In the case of YIPF3 (from UniProt Q9GZM5 1-350), in the test with SLC22A4 (human), the binding result is given as “binds”.
For NEK6 (from UniProt Q9HC98 1-313), the binding entry with SLC1A2 (human) [1] is on record as “binds”.

B1: Embigin (protein, UniProt Q6PCB8 33-327)
chain: DGSAPDSPFTSPPLREEIMANNFSLESHNISLTEHSSMPVEKNITLERPSNVNLTCQFTTSGDLNAVNVTWKKDGEQLENNYLVSATGSTLYTQYRFTIINSKQMGSYSCFFREEKEQRGTFNFKVPELHGKNKPLISYVGDSTVLTCKCQNCFPLNWTWYSSNGSVKVPVGVQMNKYVINGTYANETKLKITQLLEEDGESYWCRALFQLGESEEHIELVVLSYLVPLKPFLVIVAEVILLVATILLCEKYTQKKKKHSDEGKEFEQIEQLKSDDSNGIENNVPRHRKNESLGQ
B1: the binding result with SLC16A1 (human) is reported as “binds”.

B2: ILVBL (protein, UniProt A1L0T0 1-632)
chain: METPAAAAPAGSLFPSFLLLACGTLVAALLGAAHRLGLFYQLLHKVDKASVRHGGENVAAVLRAHGVRFIFTLVGGHISPLLVACEKLGIRVVDTRHEVTAVFAADAMARLSGTVGVAAVTAGPGLTNTVTAVKNAQMAQSPILLLGGAASTLLQNRGALQAVDQLSLFRPLCKFCVSVRRVRDIVPTLRAAMAAAQSGTPGPVFVELPVDVLYPYFMVQKEMVPAKPPKGLVGRVVSWYLENYLANLFAGAWEPQPEGPLPLDIPQASPQQVQRCVEILSRAKRPLMVLGSQALLTPTSADKLRAAVETLGVPCFLGGMARGLLGRNHPLHIRENRSAALKKADVIVLAGTVCDFRLSYGRVLSHSSKIIIVNRNREEMLLNSDIFWKPQEAVQGDVGSFVLKLVEGLQGQTWAPDWVEELREADRQKEQTFREKAAMPVAQHLNPVQVLQLVEETLPDNSILVVDGGDFVGTAAHLVQPRGPLRWLDPGAFGTLGVGAGFALGAKLCRPDAEVWCLFGDGAFGYSLIEFDTFVRHKIPVMALVGNDAGWTQISREQVPSLGSNVACGLAYTDYHKAAMGLGARGLLLSRENEDQVVKVLHDAQQQCRDGHPVVVNILIGRTDFRDGSIAV
Turning to B2, the binding entry in the test with SLC6A8 (human) is given as “binds”.

B3: GDPD1 (protein, UniProt Q8N9F7 1-314)
chain: MSSTAAFYLLSTLGGYLVTSFLLLKYPTLLHQRKKQRFLSKHISHRGGAGENLENTMAAFQHAVKIGTDMLELDCHITKDEQVVVSHDENLKRATGVNVNISDLKYCELPPYLGKLDVSFQRACQCEGKDNRIPLLKEVFEAFPNTPINIDIKVNNNVLIKKVSELVKRYNREHLTVWGNANYEIVEKCYKENSDIPILFSLQRVLLILGLFFTGLLPFVPIREQFFEIPMPSIILKLKEPHTMSRSQKFLIWLSDLLLMRKALFDHLTARGIQVYIWVLNEEQEYKRAFDLGATGVMTDYPTKLRDFLHNFSA
For B3, the binding result with SLC1A2 (human) [2] is reported as “binds”.
